Data taken from US12419619B2, “Aspiration device” (YALE UNIVERSITY, priority 2016, dated 2025).
Entries after “also recorded” stand apart in the source; their conditions may differ.

System: stem cells

CCN(CC)CC(=O)Nc1c(C)cccc1C [lidocaine]
increase of stem cell yield compared to control (lidocaine given through the novel dual-lumen BMA device at a site remote from the aspiration, preliminary data): more than 200% | stem cell yield versus control (lidocaine infused and aspirated through a standard/conventional BMA device): drastically reduced; also recorded: significantly lower than the control
